Laboratory results: patent US11000604B2, “Reagent for site-selective bioconjugation of proteins or antibodies” (Research Foundation of the City University of New York, priority 2017, dated 2021)

Assay: Degree of labeling of antibodies after conjugation with PODS-FL (UV-Vis spectrophotometry)
Conditions: 10 equivalents of PODS-FL

## CS(=O)(=O)c1nnc(-c2ccc(NC(=O)CCC(=O)NCCCOCCOCCOCCCNC(=S)Nc3ccc(-c4c5ccc(=O)cc-5oc5cc(O)ccc45)c(C(=O)O)c3)cc2)o1 [PODS-FL]
Trastuzumab following re-oxidization
  degree of labeling (DOL): 0.1±0.1
trastuzumab, absence of TCEP
  degree of labeling (DOL): 0.03±0.02
trastuzumab, two hours, 10 eq TCEP
  degree of labeling (DOL): 2.04±0.03
